# Library screen at single concentrations

Values are the deposited “Percent Effect”, in %. The record does not define 0% and 100%; most values in the screen are far below 50% and negative numbers occur (in some assays of this library far below -100). Compounds were drawn at random from those tested, without regard to their results. Two or more numbers in one place are separate tests of the same structure; such repeats can differ widely.

Mtb glucose medium: 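Whole-cell growth test on Mycobacterium tuberculosis, read after 3 days in glucose-containing 7H9 medium; the read-out is not stated. Tested at 50 µM. The record gives no direction; compounds that gave an IC50 in retests scored well above the rest, so higher reads as more growth inhibition. Of about 69,000 compounds tested this way, about 760 (1.1%) reached 50% or more in at least one test.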
Mtb cholesterol medium: 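Phenotypic screen: M. tuberculosis growth, cholesterol and DPPC medium, 4 days; the read-out is not stated. Tested at 50 µM. Higher reads as more growth inhibition (inferred: compounds with an IC50 in retests scored well above the rest). About 69,000 compounds were tested under these conditions; 0.54% (about 370) showed 50% or more at least once.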

| Compound | Mtb glucose medium | Mtb cholesterol medium |
|---|---|---|
| `COc1ccc(CCC(C)Nc2cccc(SC)c2)cc1` (configuration not stated) | 50.98 | 69.57 |
| `O=C(NCCCN1CCOCC1)c1ccn(COc2ccc(Br)cc2)n1` | -3.531 | 1.956 |
| `Cc1ccc(N2N=C(C(=O)N(C)Cc3ccco3)NCC2=O)cc1` | 2.75 and -26.76 | -13.48 |
| `COc1cccc2c1OCC(CNc1ccc(C)nn1)C2` (configuration not stated) | -16.48 | -31.3 |
| `O=C(NCCn1cccc1)c1c(O)cc(F)cc1F` | 8.327 | 28.37 |
| `CCc1ccc(C(=O)N2CCCC(c3nn[nH]n3)C2)cc1` (configuration not stated) | 7.255 | -6.201 |
| `Cc1n[nH]c(SCC(=O)N[C@@H](C)C(N)=O)n1` | 8.688 | -7.173 |
| `COCCN1CCN(CCCS(=O)(=O)c2ccccc2)CC1C` (configuration not stated) | 8.252 | -13.25 |
| `O=C(O)C(F)(F)F.[H][C@@]12CCN(CC3CCOCC3)C[C@]1(c1nc(C)no1)CCO2` | 1.31 | -7.129 |
| `CCC(=O)Nc1cccc(OCC(=O)N(C)Cc2cc(COC)[nH]n2)c1` | 30.61 | 8.924 |
| `CC(Cn1cccn1)NC(=O)NCCc1cccs1` (configuration not stated) | 4.262 | 17.48 |
| `CCc1nnc(C(C)N2CCCN(C(=O)Oc3ccccc3)CC2)o1` (configuration not stated) | -2.453 and -18.15 | -17.61 |
| `Cn1ccc2cc(C(=O)NC3CCOC(C)(C)C3)ccc21` (configuration not stated) | 21.93 and 11.58 | -20.34 |
| `CCNC(=O)[C@@H]1C[C@H](NC(=O)c2cc(=O)[nH]c3ccc(C)cc23)CN1C` | -3.883 and -3.427 | 4.896 |
| `COc1cccc(/C=C/CCN2CCC(C(=O)N3CCCC3)CC2)c1` | 1.194 and 22.23 | -1.477 |
| `CC(C)N1CCC(CC(=O)NCC2OCCc3ccccc32)CC1` (configuration not stated) | -5.172 and 12.63 | -3.678 |
| `O=S(=O)(c1cc2ccccc2o1)N1CCCC1` | 14.26 and 10.11 | 0.9902 |
| `CCOC(C)c1nc(COc2nc(C)no2)cs1` (configuration not stated) | 1.171 | 10.4 |
| `CCCN1C(=O)C2(CCCCC2)NC1c1c[nH]nc1-c1cccnc1` (configuration not stated) | 0.02485 and -15.06 | -9.799 |
| `O=C(OC1CCC1)c1ncccc1C(F)(F)F` | 18.6 | 6.76 |
| `CC(=O)N1CCCC1CCc1ccnc(-c2cncnc2)c1` (configuration not stated) | -0.1362 | -17.01 and -0.1651 |
| `COCc1cc(C[C@@H]2CC[C@H](O)[C@@H](CN(C)C)O2)no1` | 9.494 and -1.988 | -10.86 |
| `CCOc1ncccc1CNC(=O)N1CCCC1c1cccs1` (configuration not stated) | -12.21 | -5.665 |
| `CC(CNC(=O)N(C)Cc1ccco1)N1CCc2sccc2C1` (configuration not stated) | -7.687 | -12.55 |
| `CCNc1ncc(-c2cc(-c3ccn(C)c3)nc(N)c2C#N)cn1` | 1.218 | 10.78 |
| `COCc1noc(Cc2c(C)nn(C)c2C)n1` | 1.727 and 22.78 | 12.26 |
| `NC(=O)c1cnn2c1NCC(CNCCOc1ccccc1)C2` (configuration not stated) | 28.62 | 7.047 |
| `Cc1nc(C)c(CC(=O)N2CCC(c3ccn4nccc4n3)CC2)s1` | 15.61 | -8.387 and -1.192 |
| `COc1ccc(-c2cc(C3CCNCC3)nc(C)n2)cc1.Cl` | 9.983 | 24.88 |
| `O=C(O)C(F)(F)F.O=C(O)C(F)(F)F.[H][C@@]12CCN(c3ncccn3)[C@]1([H])CC[C@H](C(=O)NC1CCN(C)CC1)O2` | -5.545 and 3.39 | 6.958 |
| `CC(C1CC1)N(CC(=O)NC(=O)NC1CC1)C1CC1` (configuration not stated) | -3.948 and 1.567 | 18.6 |
| `Cc1noc(C2CN(CC(=O)NCC3CCCO3)C2)n1` (configuration not stated) | 1.408 and 6.076 | -11.63 |
| `CC(C)N1CC(C(=O)NCc2ccnc(-n3cccn3)c2)CC1=O` (configuration not stated) | -34.28 | -18.95 |
| `O=C(NCCc1c[nH]c2ccccc12)C1(n2cnnn2)CCCCC1` | 56.36 | 71.95 |
| `O=C(O)C(F)(F)F.O=C(O)C(F)(F)F.[H][C@]12CCCC(N(C)Cc3ccccn3)[C@@]1([H])CN(CC1CC1)C2` (some centres not stated) | -17.55 | -5.084 |
| `O=C(NCC1CC1)C1CCC2(CCNCC2)C1` (configuration not stated) | -0.07622 | 14.3 |
| `O=C(NCc1nncn1-c1ccccc1)C1CC1` | 2.064 | -26.81 |
| `O=c1c(S(=O)(=O)N2CCCC2)cccn1Cc1c(F)cccc1Cl` | 0.1059 and 10.23 | 10.66 |
| `CC(CNC(=O)N1CCC(CO)CC1)Cc1cccs1` (configuration not stated) | 20.21 | 8.341 |
| `CC(C)NC(=O)CCNC(=O)CCc1cc(Br)cs1` | -2.383 | -24.04 |
| `COC(=O)c1cc(CN2CCN(c3ncccc3C)CC2)ccc1O` | 3.91 | -28.52 |
| `CC(c1ccc(F)cc1F)N1CCN(CCC(=O)NC(N)=O)CC1` (configuration not stated) | 30.52 | 23.29 |
| `Cc1cnn(CCNCc2ccc(OCc3cscn3)cc2)c1` | -16.24 | -4.983 and -8.216 |
| `CCc1nc(C2CCCN2C(=O)c2nc(C)n3ccccc23)no1` (configuration not stated) | -19.75 | -14.17 |
| `CNC(=O)C1CN(C(C)C)CCN1c1nc(C)cc(C)n1` (configuration not stated) | -11.31 | 10.58 |
| `Cc1noc(C)c1CN1CCOC(CNc2cccnn2)C1` (configuration not stated) | -8.777 | -5.074 |
| `Cc1ncoc1C(=O)N1CCCC(C(=O)c2cccc(OC(C)C)c2)C1` (configuration not stated) | -10.2 | 1.132 |
| `[H][C@@]12CCN(C(C)=O)CC[C@]1(C(=O)Nc1cccnc1)CCN2C` | 10.12 | 7.315 |
| `Cn1nc(CN2CCCC2)c2c1CN(C(=O)c1ccncc1F)CC2` | 0.5168 and 36.12 | -9.906 |
| `O=C(Cc1ccsc1)N1CCCC(CNS(=O)(=O)Cc2ccccc2)C1` (configuration not stated) | 8.019 | -4.943 |
| `CCOc1ccccc1CCNC(=O)NCC(O)c1cccs1` (configuration not stated) | 15.32 and -0.6366 | 8.88 |
| `CCC[C@@H]1CN(Cc2cc(OC)c3c(c2)OCO3)C[C@H]1C(=O)O` | 28.29 | -3.317 and -12.55 |
| `Cc1ccc2c(c1)SCC(=O)N2CC(=O)N1CCCC1c1cc(C)on1` (configuration not stated) | 5.744 | -11.58 and -14.54 |
| `CN1CCC(N[C@@H]2CO[C@H](CNC(=O)C3CCCC3)[C@H]2O)CC1` | -26.23 and -6.353 | -21.61 |
| `O=C(NC1CCN(c2ncccn2)CC1)c1cc2c([nH]c1=O)CCC2` | 3.234 and -15.53 | -11.3 |
| `CCc1nc(C(=O)N2CCCCC2)nn1-c1ccccc1Cl` | -13.12 | -7.049 |
| `Cc1ccc(NC(=O)N2CCCC2)c(OCC2CCCO2)c1` (configuration not stated) | 14.84 | 12.26 |
| `CS(=O)(=O)NCC1CCCCN1Cc1ccccc1C#N` (configuration not stated) | 18.82 | 27.29 |
| `O=C(CN1C=Nc2ccccc2S1(=O)=O)NCC1CC1` | 12.28 | -2.889 |
| `Cc1nc(C2CCCN(C(=O)c3sccc3C3CC3)C2)no1` (configuration not stated) | -1.36 and 10.28 | 1.013 |
| `CC(Oc1cccc(Cl)c1)C(=O)Nc1cnn(CC(=O)NC2CC2)c1` (configuration not stated) | 2.238 and -11.42 | 3.766 |
| `Cl.O=C(Nc1cccc(F)c1)C1=NOC2(CCNCC2)C1` | -8.007 | -19.6 |
| `CN(C)C(=O)CCS(=O)(=O)Cc1cc(Cl)c2c(c1)OCCO2` | -31.64 | -3.684 and 0.7416 |
| `Cc1ncnc(NCc2cc3n(n2)CCCN(S(C)(=O)=O)C3)c1C` | -21.67 | -11.74 |
| `Cc1c[nH]c(C(=O)N2CCn3nc(C(=O)NC4CC4)cc3C2)n1` | 31.76 | -47.51 |
| `CCOC(=O)Cc1csc(NC(=O)c2cc3n(n2)CCCO3)n1` | -25.01 | -20.03 |
| `Fc1ccc(-c2nnc(CN3CCCC(Cn4cncn4)C3)o2)cc1` (configuration not stated) | 33.75 | 10.51 |
| `O=C(O)C(F)(F)F.O=C(c1ccccc1)N1CCOC2(CCN(Cc3cccs3)CC2)C1` | -25.31 | -1.272 |
| `CC(C)c1nccc(CN(C)Cc2cnn(-c3ccccc3)c2)n1` | 8.494 | -3.62 |
| `N[C@@H]1CC[C@H](C(=O)NCCn2cc(Cl)cn2)C1` | -16.32 | -15.93 |
| `Cc1ccc(N2CCN(C3CCc4ccccc4C3)CC2)nn1` (configuration not stated) | 2.223 and 11.2 | -0.713 |
| `CN1CCN([C@@H]2CCN(C3CCOCC3)[C@H]2Cc2cnn(C)c2)CC1.O=C(O)C(F)(F)F.O=C(O)C(F)(F)F.O=C(O)C(F)(F)F` | 17.13 | -4.701 |
| `CN(C)CCN(C)S(=O)(=O)Cc1ccc(Br)cc1` | -16.26 and -7.84 | -14.61 |
| `NC(=O)C1(c2cnccn2)CCCN1Cc1cccc(Cl)c1` (configuration not stated) | -4.388 | 2.715 |
| `COc1ncccc1CNC(=O)c1ccc(C)[nH]c1=O` | -23.91 | -32.73 |
| `CN1CCN(C(=O)c2ccc3c(c2)[nH]c(=O)n3C2CCCC2)CC1` | 0.2742 | -9.775 |
| `CCS(=O)(=O)N1CC(c2nc(-c3ccsc3)no2)C1` | 12.41 | 34.91 |
| `CCn1c(C)nc2cc(NC(=O)C3CN(C(C)=O)C3)ccc21` | -13.74 | 3.545 and -0.09632 |
| `[H][C@]12CC[C@]([H])(CN(Cc3ccccc3)C1)N(C(=O)CCc1cnn(C)c1)C2` | -1.371 and -11.77 | 13.66 |
| `O=C(c1ccncc1)N1CCCC(C2=Nc3ccccc3S(=O)(=O)N2)C1` (configuration not stated) | -18.57 | -7.847 and -1.623 |
| `Cc1oncc1C(=O)N1CCC2(C1)CN(c1cccnc1)C(=O)CN2C` (configuration not stated) | 12.94 | 17.71 |

From ChEMBL document CHEMBL3988442, “University of Dundee, Small-Polar-MMV Screening Library” (2021).